From paper PMC5150220

B1: Ssb1 (wild type, recombinant) [S. cerevisiae] / IAANS-labelled peptide σ32-Q132-Q144-C [modified: IAANS (2-(4'-(iodoacetamido)anilino)naphthalene-6-sulfonic acid) label; IAANS (2-(4'-(iodoacetamido)anilino)naphtha … (parent)
chain 1: MAEGVFQGAIGIDLGTTYSCVATYESSVEIIANEQGNRVTPSFVAFTPEERLIGDAAKNQAALNPRNTVFDAKRLIGRRFDDESVQKDMKTWPFKVIDVDGNPVIEVQYLEETKTFSPQEISAMVLTKMKEIAEAKIGKKVEKAVITVPAYFNDAQRQATKDAGAISGLNVLRIINEPTAAAIAYGLGAGKSEKERHVLIFDLGGGTFDVSLLHIAGGVYTVKSTSGNTHLGGQDFDTNLLEHFKAEFKKKTGLDISDDARALRRLRTAAERAKRTLSSVTQTTVEVDSLFDGEDFESSLTRARFEDLNAALFKSTLEPVEQVLKDAKISKSQIDEVVLVGGSTRIPKVQKLLSDFFDGKQLEKSINPDEAVAYGAAVQGAILTGQSTSDETKDLLLLDVAPLSLGVGMQGDMFGIVVPRNTTVPTIKRRTFTTCADNQTTVQFPVYQGERVNCKENTLLGEFDLKNIPMMPAGEPVLEAIFEVDANGILKVTAVEKSTGKSSNITISNAVGRLSSEEIEKMVNQAEEFKAADEAFAKKHEARQRLESYVASIEQTVTDPVLSSKLKRGSKSKIEAALSDALAALQIEDPSADELRKAEVGLKRVVTKAMSSR
chain 2: QRKLFFNLRKTKQC

Legend:
[1] = variants of: B1; assay: fluorescence anisotropy (fluorescence polarization); conditions: with IAANS-labelled peptide σ32-Q132-Q144-C [modified: IAANS (2-(4'-(iodoacetamido)anilino)naphthalene-6-sulfonic acid) label, parent: 140, read off a plot
[2] = variants of: B1; assay: peptide release kinetics (IAANS-labelled peptide fluorescence); conditions: with IAANS-labelled peptide σ32-Q132-Q144-C [modified: IAANS (2-(4'-(iodoacetamido)anilino)naphthalene-6-sulfonic acid) label, parent: 0.003, read off a plot

response [1]	koff [2]	Variant
120 mP	0.0017 s⁻¹	chain 1 K428A R429A R430A
120 mP	0.0023 s⁻¹	chain 1 K603A R604A K608A R613A
